Here are results for 3 molecules from patent US6911418B2, “Method for treating a subterranean formation” (Schlumberger Technology Corporation, priority 2001, dated 2005).

A short description of this data set: coreflood test, pore volume to breakthrough (PVbt).

Like-named read-outs stand apart in the source and are kept apart here.

On to “dipotassium ethylenediamine tetraacetate”, for which the “pore volume to breakthrough (PVbt)” value is “about 22”.

As for “tetrasodium ethylenediamine tetraacetate”, the “pore volume to breakthrough (PVbt)” value (66° C., injection rate 5.0 ml/min, 20 percent tetrasodium, 28 percent dipotassium, 22 percent diammonium EDTA solutions, estimated from permeability/time curve) is recorded as “about 30”.

In the case of `CC(=O)ON(CCN(OC(C)=O)OC(C)=O)OC(C)=O.N.N.N.N` [tetraammonium ethylenediamine tetraacetate], where the note is “149° C., 5 ml per minute, 22 percent solutions, FIG. 2”, the “PVbt compared with 20 percent tetrasodium ethylenediamine tetraacetate solution” value is “lower PVbt”.
